Results deposited as PubChem BioAssay AID1259254 (NCATS, 2017).

- Aim: 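Genome-wide screen for genes that prevent DNA re-replication in cancer cells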 (primary screen)
- System: human HCT116 colorectal cancer cells
- Reagents: single siRNA against human genes
- Timing: 3 days
- Detection: 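Imaged Hoechst DNA stain sorts each cell into a cycle phase by DNA amount; per plate, G2 fraction set to 0% for non-targeting and 100% for GMNN siRNA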
- Reading the numbers: G2 robust z-score: higher = more G2 cells, more excess DNA replication
- Active means: 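An siRNA counts as active if its G2 robust z-score lies at least 5 MADs above the screen median; here such calls match roughly 38% of GMNN control or more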
In all, the deposit lists about 59,000 reagents; this is a random part of them. Over the whole deposit, about 1,550 (2.6%) were called active. 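G2 share is only a proxy for re-replication; each gene was hit by three separate siRNAs, and active genes were retested.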 The numbers tell different reagents against one gene apart. Not all columns of the deposit are shown. Not given: the amount of reagent.

| target | reagent | G2 robust z-score | activity call |
| --- | --- | --- | --- |
| PTGER2 | 1 | 3.59 | inactive |
| PTGER2 | 2 | -0.0383 | inactive |
| PTGER2 | 3 | -0.846 | inactive |
| ACTN3 | 1 | -0.999 | inactive |
| ACTN3 | 2 | 0.355 | inactive |
| ACTN3 | 3 | -1.29 | inactive |
| MAIP1 | 1 | 1.19 | inactive |
| MAIP1 | 2 | 0.171 | inactive |
| MAIP1 | 3 | -0.516 | inactive |
| CCDC170 | 1 | -0.7 | inactive |
| CCDC170 | 2 | 2.39 | inactive |
| CCDC170 | 3 | -0.154 | inactive |
| HTR3B | 1 | 0.207 | inactive |
| HTR3B | 2 | 3.09 | inactive |
| HTR3B | 3 | -1.24 | inactive |
| CDRT4 | 1 | 0.986 | inactive |
| CDRT4 | 2 | 0.343 | inactive |
| CDRT4 | 3 | 0.214 | inactive |
| ATP2A1 | 1 | 1.17 | inactive |
| ATP2A1 | 2 | 1.48 | inactive |
| ATP2A1 | 3 | -0.0138 | inactive |
| YIPF5 | 1 | -0.146 | inactive |
| YIPF5 | 2 | 0.555 | inactive |
| YIPF5 | 3 | 1.21 | inactive |
| DDB2 | 1 | -0.996 | inactive |
| DDB2 | 2 | -0.606 | inactive |
| DDB2 | 3 | 1.16 | inactive |
| SPINK13 | 1 | -0.707 | inactive |
| SPINK13 | 2 | -0.446 | inactive |
| SPINK13 | 3 | 0.149 | inactive |
| PCBP2 | 1 | -0.0628 | inactive |
| PCBP2 | 2 | 0.114 | inactive |
| PCBP2 | 3 | 0.0725 | inactive |
| WNK3 | 1 | 0.55 | inactive |
| WNK3 | 2 | 0.011 | inactive |
| WNK3 | 3 | -0.921 | inactive |
| TNFRSF6B | 1 | -0.55 | inactive |
| TNFRSF6B | 2 | -0.103 | inactive |
| TNFRSF6B | 3 | 1.02 | inactive |

Next part; the last 7 above are carried over.
| target | reagent | G2 robust z-score | activity call |
| --- | --- | --- | --- |
| PCBP2 | 3 | 0.0725 | inactive |
| WNK3 | 1 | 0.55 | inactive |
| WNK3 | 2 | 0.011 | inactive |
| WNK3 | 3 | -0.921 | inactive |
| TNFRSF6B | 1 | -0.55 | inactive |
| TNFRSF6B | 2 | -0.103 | inactive |
| TNFRSF6B | 3 | 1.02 | inactive |
| KLRC3 | 1 | 0.947 | inactive |
| KLRC3 | 2 | -0.896 | inactive |
| KLRC3 | 3 | -0.294 | inactive |
| GATAD2B | 1 | -0.509 | inactive |
| GATAD2B | 2 | -0.277 | inactive |
| GATAD2B | 3 | 0.68 | inactive |
| LINC02875 | 1 | 0.208 | inactive |
| LINC02875 | 2 | -0.191 | inactive |
| LINC02875 | 3 | -0.58 | inactive |
| POLR1B | 1 | 0.391 | inactive |
| POLR1B | 2 | 1.47 | inactive |
| POLR1B | 3 | 0.793 | inactive |
| MGP | 1 | 2.45 | inactive |
| MGP | 2 | 2.95 | inactive |
| MGP | 3 | 4.27 | inactive |
| GLRX | 1 | 1.76 | inactive |
| GLRX | 2 | 0.0318 | inactive |
| GLRX | 3 | 1.41 | inactive |
| ALCAM | 1 | -0.0599 | inactive |
| ALCAM | 2 | -0.774 | inactive |
| ALCAM | 3 | 2.24 | inactive |
| PPP1R27 | 1 | 1.06 | inactive |
| PPP1R27 | 2 | -0.664 | inactive |
| PPP1R27 | 3 | -1.05 | inactive |
| APOBEC4 | 1 | 0.175 | inactive |
| APOBEC4 | 2 | -0.186 | inactive |
| APOBEC4 | 3 | -0.494 | inactive |
| L3MBTL4 | 1 | 1.44 | inactive |
| L3MBTL4 | 2 | -0.0194 | inactive |
| L3MBTL4 | 3 | 1.06 | inactive |
| HK3 | 1 | -0.82 | inactive |
| HK3 | 2 | 1.14 | inactive |
| HK3 | 3 | -0.383 | inactive |
| LOC402715 | 1 | 0.147 | inactive |
| LOC402715 | 2 | -0.58 | inactive |
| LOC402715 | 3 | -0.787 | inactive |
| SURF2 | 1 | 1.35 | inactive |
| SURF2 | 2 | -0.294 | inactive |
| SURF2 | 3 | -0.397 | inactive |
| CST9LP1 | 1 | 0.237 | inactive |
| CST9LP1 | 2 | -0.436 | inactive |
| CST9LP1 | 3 | 0.317 | inactive |
| DRAXIN | 1 | 1.19 | inactive |
| DRAXIN | 2 | -0.13 | inactive |
| DRAXIN | 3 | 1.72 | inactive |
| AMZ2 | 1 | -0.217 | inactive |
| AMZ2 | 2 | 1.73 | inactive |
| AMZ2 | 3 | -0.157 | inactive |
